PubChem BioAssay AID1053208 | Peter MacCallum Cancer Centre – 2014
Purpose: 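Synthetic lethal interactions between gene loss and doxorubicin in osteosarcoma cells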 (primary screen). Cells: mouse osteosarcoma cells, early-passage culture from an engineered mouse model of fibroblastic bone tumour. Reagents: siRNA pool against mouse genes, 40 nM. Duration: about 120 h (48 h before drug, then 72 h with drug). Conditions: doxorubicin 100 nM for 72 h, roughly 30-40% inhibitory dose. Measurement: 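Luminescent ATP signal taken as viability with or without 100 nM doxorubicin for 72 h; mean of two wells set against non-targeting siRNA and turned into robust z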. Scale: viability z-score with doxorubicin and doxorubicin viability vs non-targeting: higher = more viable cells under doxorubicin; viability z-score without drug: higher = more viable cells with knock-down alone; z-score of drug to no-drug ratio: higher = less drug sensitisation by knock-down. Hit rule: 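a pool counts as active when its viability z-score with doxorubicin is -2 or below and its z-score without drug lies between -2 and 2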.
The whole screen tested about 17,000 reagents; this is an unselected part. 788 of all reagents (4.7%) count as active. 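Calls rest on z-score classes alone; an extra cut-off of viability at most 70% of control was not applied to them.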 Some reagents were tested in more than one well and are listed for each.

no.	gene	combined z-score class	viability z-score with doxorubicin	viability z-score without drug	z-score of drug to no-drug ratio	doxorubicin viability vs non-targeting	Call
1	Defb35	no change with or without drug	0.9	1.18	0.22	1.02	inactive
2	Aaas	no change with or without drug	0.45	0.84	0	0.98	inactive
3	Dusp28	no change with or without drug	0	-1.01	0.9	0.94	inactive
4	Orc3	no change with or without drug	-0.56	0.51	-0.79	0.89	inactive
5	Pla2g1b	no change with or without drug	-1.12	0.67	-1.46	0.84	inactive
6	Zfp239	no change with or without drug	0.22	0.17	0.22	0.96	inactive
7	Gpr141b	no change with or without drug	-0.67	-1.01	0.11	0.88	inactive
8	Mcph1	no change with or without drug	0.9	-0.51	1.46	1.02	inactive
9	Esco2	no change with or without drug	-0.67	0.17	-0.67	0.88	inactive
10	Skic8	no change with or without drug	0	0.51	-0.22	0.94	inactive
11	Nr1h4	no change with or without drug	0.9	0.67	0.56	1.02	inactive
12	Socs3	no change with or without drug	-0.45	0	-0.34	0.9	inactive
13	Slc22a13b	no change with or without drug	-0.22	0.67	-0.56	0.92	inactive
14	Trh	no change with or without drug	-0.9	0.51	-1.12	0.86	inactive
15	Ophn1	high cell count with doxorubicin only	2.36	0.51	2.14	1.15	inactive
16	Rgl1	no change with or without drug	-0.9	-0.17	-0.79	0.86	inactive
17	Ppp2r5c	high cell count with doxorubicin only	2.02	0	2.25	1.12	inactive
18	Prg3	no change with or without drug	1.57	1.01	1.01	1.08	inactive
19	Pex3	no change with or without drug	0.34	0.17	0.34	0.97	inactive
20	Sugt1	no change with or without drug	-1.8	-0.51	-1.46	0.78	inactive
21	Cct3	no change with or without drug	1.12	-0.84	2.02	1.04	inactive
22	Serinc1	no change with or without drug	1.24	-0.84	2.14	1.05	inactive
23	Casc3	no change with or without drug	-1.46	-0.84	-0.9	0.81	inactive
24	Ahctf1	low cell count with and without drug	-2.47	-2.87	-0.67	0.72	inactive
25	Stk24	no change with or without drug	0	-1.01	0.9	0.94	inactive
26	C8a	no change with or without drug	0.79	0.51	0.56	1.01	inactive
27	Il13	no change with or without drug	1.57	0.84	1.12	1.08	inactive
28	Zfp612	no change with or without drug	0.22	-0.17	0.45	0.96	inactive
29	Gzmb	no change with or without drug	1.35	1.85	0.22	1.06	inactive
30	Cst6	no change with or without drug	0.45	1.52	-0.45	0.98	inactive
31	Papss1	no change with or without drug	0.45	0.17	0.45	0.98	inactive
32	Trpm7	no change with or without drug	-0.11	-0.17	0.11	0.93	inactive
33	Or2t1	no change with or without drug	-0.22	-1.18	0.79	0.92	inactive
34	Magi3	no change with or without drug	-1.12	-0.84	-0.56	0.84	inactive
35	Magi3	no change with or without drug	-0.45	-0.17	-0.22	0.9	inactive
36	Ube2j2	no change with or without drug	0	0.17	0	0.94	inactive
37	Elavl4	no change with or without drug	0	1.52	-0.9	0.94	inactive
38	Htr1a	no change with or without drug	1.35	0.34	1.24	1.06	inactive

Sorted by “doxorubicin viability vs non-targeting” (high to low): some entries from above
gene	combined z-score class	viability z-score with doxorubicin	viability z-score without drug	z-score of drug to no-drug ratio	doxorubicin viability vs non-targeting	Call
Serinc1	no change with or without drug	1.24	-0.84	2.14	1.05	inactive
Cct3	no change with or without drug	1.12	-0.84	2.02	1.04	inactive
C8a	no change with or without drug	0.79	0.51	0.56	1.01	inactive
Stk24	no change with or without drug	0	-1.01	0.9	0.94	inactive
Casc3	no change with or without drug	-1.46	-0.84	-0.9	0.81	inactive
Sugt1	no change with or without drug	-1.8	-0.51	-1.46	0.78	inactive
Ahctf1	low cell count with and without drug	-2.47	-2.87	-0.67	0.72	inactive

The results go on:
no.	gene	combined z-score class	viability z-score with doxorubicin	viability z-score without drug	z-score of drug to no-drug ratio	doxorubicin viability vs non-targeting	Call
39	Ipo5	no change with or without drug	-0.34	0.51	-0.56	0.91	inactive
40	N4bp1	no change with or without drug	0.11	0.17	0.11	0.95	inactive
41	Ccdc127	no change with or without drug	0.45	0.51	0.22	0.98	inactive
42	Havcr1	no change with or without drug	-0.45	-0.17	-0.22	0.9	inactive
43	Cldn6	no change with or without drug	-1.01	1.18	-1.69	0.85	inactive
44	Acot12	no change with or without drug	0.11	0.84	-0.34	0.95	inactive
45	Zbtb43	no change with or without drug	0.67	1.18	0	1	inactive
46	Metap1d	low cell count with doxorubicin only	-2.25	-0.51	-2.02	0.74	active
47	Adgrg1	no change with or without drug	-1.35	-0.34	-1.12	0.82	inactive
48	Ankrd9	no change with or without drug	0.11	1.18	-0.56	0.95	inactive
49	Actr1b	no change with or without drug	-0.22	-0.84	0.45	0.92	inactive
50	Ahsa1	no change with or without drug	-0.9	-0.51	-0.56	0.86	inactive
51	Defa6	no change with or without drug	0	0.67	-0.34	0.94	inactive
52	Atp5f1e	low cell count with and without drug	-2.92	-2.53	-1.46	0.68	inactive
53	Gspt2	no change with or without drug	-1.12	-0.34	-0.9	0.84	inactive
54	Cd8a	no change with or without drug	0.34	-0.84	1.12	0.97	inactive
55	Kcnq1	no change with or without drug	-0.45	-0.17	-0.22	0.9	inactive
56	Myo5b	no change with or without drug	0	-1.18	1.01	0.94	inactive
57	Opn5	no change with or without drug	1.24	-0.34	1.69	1.05	inactive
58	Vars2	no change with or without drug	-0.9	-0.51	-0.56	0.86	inactive
59	Tmem230	no change with or without drug	-0.67	0.51	-0.9	0.88	inactive
60	Or9a2	no change with or without drug	-1.8	-1.18	-1.01	0.78	inactive
61	Dtnb	no change with or without drug	-1.24	0.84	-1.69	0.83	inactive
62	Minar2	no change with or without drug	0.56	-0.84	1.35	0.99	inactive
63	Nup88	low cell count with and without drug	-6.63	-6.74	-3.82	0.35	inactive
